This note sets out measurements from article PMC4370648.

Experiment [1] addresses T1, mouse Slamf1 on transfected HEK293 cells (mouse) (UniProt Q9QUM4).
T1 sequence: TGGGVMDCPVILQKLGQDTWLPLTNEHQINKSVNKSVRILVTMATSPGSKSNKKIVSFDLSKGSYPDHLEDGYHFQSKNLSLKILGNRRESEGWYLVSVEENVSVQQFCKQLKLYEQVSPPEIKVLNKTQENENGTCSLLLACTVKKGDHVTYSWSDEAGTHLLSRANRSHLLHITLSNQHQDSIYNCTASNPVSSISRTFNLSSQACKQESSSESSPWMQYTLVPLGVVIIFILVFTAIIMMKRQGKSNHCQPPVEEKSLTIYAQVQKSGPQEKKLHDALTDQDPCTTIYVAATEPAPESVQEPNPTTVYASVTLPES
The experiment is described as follows: flow cytometry on cells; 10 μg Fc fusion protein incubated with 1×10^6 transfected HEK293 cells (24 h after transfection) on ice for 60 minutes; detected with biotin-conjugated goat anti-human IgG Fc and streptavidin-PE; only the binder purified. (In flow cytometry, cells or beads pass a laser one at a time.)

Experiment [2] has as its target T2, mouse Slamf8 on transfected HEK293 cells (mouse) (UniProt Q9D3G2).
T2 sequence: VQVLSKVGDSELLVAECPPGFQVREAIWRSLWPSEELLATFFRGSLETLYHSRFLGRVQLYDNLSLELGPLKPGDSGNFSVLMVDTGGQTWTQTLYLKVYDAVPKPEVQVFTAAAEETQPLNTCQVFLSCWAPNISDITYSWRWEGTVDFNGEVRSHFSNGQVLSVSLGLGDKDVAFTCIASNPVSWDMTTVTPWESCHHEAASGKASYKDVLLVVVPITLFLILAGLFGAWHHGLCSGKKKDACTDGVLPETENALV
Described as above.

No constants are given. Whether binding was seen depends on the method and setting. Some results given as binding are weak or reduced against the parent protein; the word gives no strength. Where a sequence is shown, tags or fusion partners need not be part of it.

B1: murine Slamf8-Fc fusion protein (Fc fusion, UniProt Q9D3G2 21-231)
chain: VQVLSKVGDSELLVAECPPGFQVREAIWRSLWPSEELLATFFRGSLETLYHSRFLGRVQLYDNLSLELGPLKPGDSGNFSVLMVDTGGQTWTQTLYLKVYDAVPKPEVQVFTAAAEETQPLNTCQVFLSCWAPNISDITYSWRWEGTVDFNGEVRSHFSNGQVLSVSLGLGDKDVAFTCIASNPVSWDMTTVTPWESCHHEAASGKASYKD
For B1, the binding entry is reported as “no binding (tested: 10 μg per 1×10^6 cells)” in experiment [1] and “binds” in experiment [2].

B2: murine Slamf1-Fc fusion protein (Fc fusion, UniProt Q9QUM4 25-242)
chain: TGGGVMDCPVILQKLGQDTWLPLTNEHQINKSVNKSVRILVTMATSPGSKSNKKIVSFDLSKGSYPDHLEDGYHFQSKNLSLKILGNRRESEGWYLVSVEENVSVQQFCKQLKLYEQVSPPEIKVLNKTQENENGTCSLLLACTVKKGDHVTYSWSDEAGTHLLSRANRSHLLHITLSNQHQDSIYNCTASNPVSSISRTFNLSSQACKQESSSESSP
On to B2, for which the binding result in experiment [1] was “binds”; in experiment [2] it was “no binding (tested: 10 μg per 1×10^6 cells)”.
